Measured values reported in patent US20230255962A1, “COMBINATION OF A BTK INHIBITOR AND AN INHIBITOR OF CDK9 TO TREAT CANCER” (ASTRAZENECA AB, priority 2017, published 2023).
At least one compound was matched to its structure with a doubt left.

Experiments:
OCILy10 = assay: Western blot of Bcl2 family / BH3-only protein levels; assay type: cell-based; details: OCILy10, 30 nM ibrutinib, 24-hour
Method: OCILy10, TMD8, and Karpas422 were treated with either vehicle or 100 nM acalabrutinib for 2 to 72 hours. Protein lysates were harvested at multiple time points in that interval, protein concentration was determined using the BCA Protein Assay Kit, and Western blots were performed according to standard protocol to assess the effects on Bcl2 family protein levels. Each sample was normalized to vinculin as a loading control, and then protein levels of acalabrutinib-treated samples were calculated relative to those of vehicle-treated samples.
The BTK inhibitor-sensitive ABC-DLBCL cell line OCILy10 was treated in vitro for an 8-hour time course with either 100 nM AZD4573 alone or following a 24-hour pre-treatment with 30 nM ibrutinib since, similar to acalabrutinib, exposure for 24 hours was sufficient to induce maximal BH3-only protein levels (data not shown). Cells were harvested for protein lysates at varying time points (0, 0.5, 1, 2, 4, and 8 hours) post-AZD4573 treatment, normalized for protein concentration using the BCA Protein Assay Kit, and run for Western blots according to standard protocols. To ensure expected target engagement was achieved, the blots were probed for the proximal and distal biomarkers for CDK9 (pSer2-RNAPolII and Mcl-1, respectively) and the biomarker for activated BTK (pBTK). […] To gauge the time to induction of apoptosis, cleaved caspase-3 was also assessed. […]

OCILy10 tumor cells = assay: Subcutaneous tumor model, tumor volume; assay type: in vivo, C.B.-17 SCID female mice; details: OCILy10, ibrutinib 12 mg/kg po QD
Method: AZD4573 was formulated in dimethylacetamide (DMA)/polyethylene glycol 400 (PEG 400)/1% w/v Tween 80 solution 2/30/68 and dosed at 5 mL/kg, intraperitoneally (ip), BID with a 2 hour split on days 1 and 2 followed by a 5 day dose holiday; i.e., a 2 on/5 off schedule. […]
5×10^6 OCILy10 tumor cells or 10×10^6 TMD8 tumor cells were injected subcutaneously in the right flank of C.B.-17 SCID female mice in a volume of 0.1 mL containing 50% matrigel. 10×10^6 Karpas-422 tumor cells were injected subcutaneously in the right flank of SCID beige female mice in a volume of 0.1 mL containing 50% matrigel. Tumor volumes (measured by caliper), animal body weight, and tumor condition were recorded twice weekly for the duration of the studies. The tumor volume was calculated using the formula: length (mm)×width (mm)^2×0.52. For efficacy studies, growth inhibition from the start of treatment was assessed by comparison of the differences in tumor volume between control and treated groups. […]
AZD4573 was formulated in dimethylacetamide (DMA)/polyethylene glycol 400 (PEG 400)/1% w/v Tween 80 solution 2/30/68 and dosed at 5 mL/kg, intraperitoneally (ip), bi-daily (BID) with a 2 hour split on days 1 and 2 with a 5 day dose holiday. […] Tumor volumes (measured by caliper), animal body weight, and tumor condition were recorded twice weekly for the duration of the studies. […]

In the case of `C=CC(=O)N1CCC[C@@H](n2nc(-c3ccc(Oc4ccccc4)cc3)c3c(N)ncnc32)C1` [ibrutinib], the “levels of the BH3-only proteins Bim and Bmf” value (OCILy10) is reported as “increased” and the “single agent anti-tumor effectiveness” value (OCILy10 tumor cells) is reported as “not highly effective”.
